PubChem BioAssay AID1259272 – Sanger Institute – 2017

Aim: 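Kinase knock-downs lethal to colorectal cancer cells, with or without anchor drugs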 (primary screen)
System: SW1116 human colorectal cancer cells
Reagents: siRNA pool against human genes
Treatment: anchor drugs BYL719 (1 µM), cetuximab (5 µg/ml) or trametinib (10 nM), or DMSO vehicle; exposure length not given
Read-out: 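Cell survival as a fraction of wells given a non-targeting pool, averaged over replicates; robust z-score without drug; synergy score for each of BYL719, cetuximab and trametinib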
Reading the numbers: viability z-score, no drug: higher = more cells remaining; strongly negative means essential gene; viability, no drug: higher = more viable cells; synergy score with BYL719 and synergy score with cetuximab and synergy score with trametinib: higher = stronger synthetic-lethal synergy with the drug
Active means: 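Called essential if the drug-free knock-down gives a robust viability z-score below -3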
Meaning of the calls: active = essential (knock-down alone); inactive = no change
In all, the deposit lists 794 reagents; below is an unselected part. 7 of all reagents (0.88%) count as active. 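Essential calls reflect knock-down without drug only, not synergy with drugs; drug exposure length not given.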 Entries without a mark were called inactive. No viability above 1 is reported: the scale is capped. Not given: the amount of reagent, the time to read-out.

no.	gene	viability z-score, no drug	viability, no drug (fraction of control)	synergy score with BYL719	synergy score with cetuximab	synergy score with trametinib
1	PRKAR2B	-2.34	0.662	-0.11	-0.0769	0.0476
2	EPHB4	-0.283	0.88	-0.157	-0.0546	-0.151
3	CHEK2	0.689	0.984	-0.00118	0.13	0.14
4	EGFR	-0.27	0.882	-0.0471	-0.0425	-0.0233
5	EPHB3	-1.81	0.717	-0.158	-0.0295	0.0526
6	MERTK	-0.028	0.907	0.017	-0.0323	0.178
7	PI4K2B	-1.01	0.802	-0.0903	0.0194	0.0328
8	NPR2	0.842	1	-0.00654	-0.0757	-0.0465
9	TSKS	0.842	1	-0.0779	-0.0349	-0.0303
10	GRK4	-0.141	0.895	0.0148	-0.00892	0.124
11	TBX3	0.842	1	-0.076	-0.0618	-0.0219
12	DCLK2	-0.12	0.898	-0.0249	-0.153	-0.0521
13	DCK	-1.76	0.722	-0.0314	-0.0863	0.194
14	COASY	-2.51	0.642	-0.0635	-0.104	-0.0326
15	PAK6	0.842	1	-0.0788	0.0101	0.05
16	PRKCE	-1.07	0.797	-0.122	-0.0552	-0.012
17	SYNCRIP	-1.03	0.801	-0.0818	-0.146	0.00948
18	CAMK2B	0.842	1	-0.0788	-0.0234	-0.0629
19	PIK3CD	0.842	1	-0.0788	-0.067	0.121
20	CHEK1	-2.32	0.663	-0.0595	-0.0654	-0.186
21	BUB1B	-0.652	0.841	0.00404	0.105	0.106

Reformatted: 8 of the entries above
{"gene":"PRKAR2B","viability z-score, no drug":-2.34,"viability, no drug (fraction of control)":0.662,"synergy score with BYL719":-0.11,"synergy score with cetuximab":-0.0769,"synergy score with trametinib":0.0476}
{"gene":"EPHB4","viability z-score, no drug":-0.283,"viability, no drug (fraction of control)":0.88,"synergy score with BYL719":-0.157,"synergy score with cetuximab":-0.0546,"synergy score with trametinib":-0.151}
{"gene":"CHEK2","viability z-score, no drug":0.689,"viability, no drug (fraction of control)":0.984,"synergy score with BYL719":-0.00118,"synergy score with cetuximab":0.13,"synergy score with trametinib":0.14}
{"gene":"EGFR","viability z-score, no drug":-0.27,"viability, no drug (fraction of control)":0.882,"synergy score with BYL719":-0.0471,"synergy score with cetuximab":-0.0425,"synergy score with trametinib":-0.0233}
{"gene":"EPHB3","viability z-score, no drug":-1.81,"viability, no drug (fraction of control)":0.717,"synergy score with BYL719":-0.158,"synergy score with cetuximab":-0.0295,"synergy score with trametinib":0.0526}
{"gene":"MERTK","viability z-score, no drug":-0.028,"viability, no drug (fraction of control)":0.907,"synergy score with BYL719":0.017,"synergy score with cetuximab":-0.0323,"synergy score with trametinib":0.178}
{"gene":"PI4K2B","viability z-score, no drug":-1.01,"viability, no drug (fraction of control)":0.802,"synergy score with BYL719":-0.0903,"synergy score with cetuximab":0.0194,"synergy score with trametinib":0.0328}
{"gene":"NPR2","viability z-score, no drug":0.842,"viability, no drug (fraction of control)":1,"synergy score with BYL719":-0.00654,"synergy score with cetuximab":-0.0757,"synergy score with trametinib":-0.0465}

Continued.
no.	gene	viability z-score, no drug	viability, no drug (fraction of control)	synergy score with BYL719	synergy score with cetuximab	synergy score with trametinib
22	PHKG1	-0.457	0.862	-0.0686	-0.0323	0.0589
23	KCNH8	-2.27	0.668	-0.171	-0.183	0.225
24	CLK3	-0.193	0.89	-0.153	0.0113	0.157
25	BMX	0.321	0.945	-0.13	-0.012	-0.0519
26	ITPKB	0.842	1	-0.047	0.0148	-0.13
27	ROCK2	0.824	0.998	-0.0805	-0.0774	0.125
28	RIPK1	0.71	0.986	-0.0426	0.0281	0.0807
29	LATS2	0.842	1	-0.0788	-0.016	-0.0273
30	IP6K2	-0.21	0.888	0.0221	-0.0608	0.116
31	MVK	0.356	0.948	-0.123	-0.0755	-0.00788
32	GUCY2D	-2.86	0.605	-0.222	-0.252	-0.0502
33	NRBP1	-0.584	0.848	-0.0538	0.0178	0.0853
34	STK4	0.842	1	-0.0493	0.172	0.0404
35	DYRK1A	-0.919	0.812	-0.125	-0.154	0.0502
36	WHR1	0.842	1	-0.0352	-0.044	0.0501
37	RYK	0.842	1	-0.0432	-0.0757	0.0173
38	SMG1	0.842	1	0.115	0.0836	0.154
39	PCBP1	-0.904	0.814	-0.218	-0.0496	0.0611
40	SIK3	0.426	0.956	-0.0765	-0.0384	0.134
41	CDK12	-0.586	0.848	-0.219	-0.0675	-0.108
42	MAPK3	0.35	0.948	-0.022	0.073	0.185
43	DUSP21	0.784	0.994	0.062	0.0532	0.206
44	PLK2	0.2	0.932	-0.0625	-0.0744	-0.101
45	MAP2K2	0.842	1	0.124	-0.0722	-0.0283
46	NME1	0.842	1	-0.0788	-0.00383	-0.0405
47	PRKCZ	-0.711	0.835	0.181	0.129	0.0722
48	CHKA	-1.59	0.741	-0.121	-0.0539	0.09
49	PAPSS1	0.842	1	-0.0147	-0.0479	0.122
50	ASPM	0.0192	0.912	-0.114	-0.115	-0.0786
